{"source": "patent US12544348B2", "about": "“Methods for treating APOE4/4-associated disorders” (The Regents of the University of California, priority 2018, dated 2026)", "key": {"apoE4-KI mice": {"tested_on": "apoE4-KI mice", "assay": "Morris water maze (MWM) spatial learning and memory, aged apoE4-KI mice", "assay_type": "in vivo", "conditions": "0.02 or 0.2 mg/kg daily i.p.", "from_the_text": "(§1) Mice. All protocols and procedures followed the guidelines of the Laboratory Animal Resource Center at the University of California, San Francisco (UCSF). All mice were housed under identical conditions from birth through death (12-hour light/dark cycle, housed 5/cage, PicoLab Rodent Diet 20). All mouse lines were maintained on a C57Bl/6J background. ApoE3-KI and apoE4-KI homozygous mouse lines (Taconic)^30,31 were born and aged under normal conditions at the Gladstone Institutes/UCSF animal facility. Female apoE-KI mice were used because of their susceptibility to AD-related neuronal and behavioral deficits. The ages of the mice are indicated in the behavioral testing section of the online methods. Bumetanide treatment. […] Body weight was measured weekly during bumetanide treatment; injection volume was calculated to achieve a dose of 0.02 (low) or 0.2 (high) mg bumetanide/kg body mass (e.g., 50-ul daily injection for a 20-g mouse). […] Performance was monitored with an Etho Vision video-tracking system (Noldus Information Technology). […] Behavior metrics are expressed as mean±SEM. […] The distribution of data was assessed with the Shapiro-Wilk normality test; most of the data were normally distributed. […]"}, "apoE3-KI mice": {"tested_on": "apoE3-KI mice", "assay": "Morris water maze (MWM) spatial learning and memory, aged apoE3-KI mice", "assay_type": "in vivo", "conditions": "0.02 or 0.2 mg/kg daily i.p.", "from_the_text": "as §1"}}, "data": [{"smiles": "CCCCNc1cc(C(=O)O)cc(S(N)(=O)=O)c1Oc1ccccc1", "note": "[bumetanide, 3-(butylamino)-4-phenoxy-5-sulfamoylbenzoic acid]", "values": [{"measurement": "swim speed during hidden platform trials", "setting": "apoE4-KI mice", "result": "did not significantly affect swim speed"}, {"measurement": "visible trial performance (motor or vision impairment)", "setting": "apoE4-KI mice", "result": "no significant difference"}, {"measurement": "swim speed during hidden platform trials", "setting": "apoE3-KI mice", "result": "did not significantly affect swim speed"}, {"measurement": "visible trial performance (motor or vision impairment)", "setting": "apoE3-KI mice", "result": "no significant difference"}]}]}
